These results are taken from patent publication US20080267971A1.

The chains behind the UniProt entries cited, without tags or fusion partners. Where a name states a change or a piece, a line headed by the entry shows the natural chain unless it says otherwise.
UniProt O35608: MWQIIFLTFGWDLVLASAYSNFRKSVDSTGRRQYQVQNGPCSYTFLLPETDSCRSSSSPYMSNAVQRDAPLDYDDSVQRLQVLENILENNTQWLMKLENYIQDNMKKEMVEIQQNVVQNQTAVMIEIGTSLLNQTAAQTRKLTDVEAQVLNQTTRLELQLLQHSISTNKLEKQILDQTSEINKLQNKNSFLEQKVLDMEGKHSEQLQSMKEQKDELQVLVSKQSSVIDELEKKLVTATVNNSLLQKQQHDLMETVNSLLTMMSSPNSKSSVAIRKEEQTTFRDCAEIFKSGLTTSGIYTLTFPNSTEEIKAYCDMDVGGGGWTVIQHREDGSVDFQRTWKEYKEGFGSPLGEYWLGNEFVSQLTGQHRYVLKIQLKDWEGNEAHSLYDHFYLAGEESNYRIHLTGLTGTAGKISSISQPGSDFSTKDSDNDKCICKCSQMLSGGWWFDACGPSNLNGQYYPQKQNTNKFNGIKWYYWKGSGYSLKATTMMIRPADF

The target of assay [1] is Mouse/Human Ang-2 StuI chimeric molecule (mouse; human) (UniProt O35608). Nature of the assay: ELISA. On the technique in general: An ELISA detects its analyte on a solid surface through an enzyme-linked reagent.
Assay [2] has as its target Mouse/Human chimeric Ang-2 with the human StuI-TfiI fragment (mouse/human chimera) (UniProt O35608). In words: ELISA.

Results are given in words; binding and its absence hold for the method and conditions named. Some results given as binding are weak or reduced against the parent protein; the word gives no strength.

B1: mAb 5.28.1 (antibody, V domains shown)
VH: EVQLVESGGIVVQPGGSLRLSCAASGFTFDDYTMHWVRQTPGKGLEWVSLISWDGGSTYYADSVKGRFTISRDNSKNSLYLQMNSLRTEDTALYYCAKDIDIAVAGTGFDHWGQGTLVTVSS
VL: EIVMTQSPATLSVSPGERATLSCRASQSVTSNLAWYQQKPGQAPRLLIYGALIRATGIPARFSGSGSGTEFTLTISSLQSEDFAVYYCQQYNNWPFTFGPGTKVDIKR
As for B1, the binding result in assay [1] and in assay [2] was “binds” in each case.
